Read-outs that look alike come from different tables or passages of the source.
What was measured:
clinical [1] = details: both, human, plasma, % fu, fraction unbound (mean (SD)), Day 1, 2 h
Protocol: (§1) Participants entered the study site on the morning of Day 1 and remained there until after collection of the 96 hours PK sample on Day 5. […] In addition, blood samples for determination of the plasma protein binding (PPB) were collected.
(§2) For all cohorts, 2-hours fraction unbound values were used to derive the unbound plasma concentrations and these unbound concentrations were used to derive unbound PK parameters.

plasma protein = experiment: clinical; details: Day 1, 2 h
Protocol: as §1, §2

[2] = for mean AUClast compared to normal hepatic function / mean AUC∞ compared to normal hepatic function / mean Cmax compared to normal hepatic function / mean AUClast,unbound compared to normal hepatic function / mean AUC∞,unbound compared to normal hepatic function / mean Cmax,unbound compared to normal hepatic function: arithmetic means; for mean AUClast compared to normal hepatic function / mean AUC∞ compared to normal hepatic function / mean Cmax compared to normal hepatic function / AUClast compared to normal hepatic function, based on GMR / AUC∞ compared to normal hepatic function, based on GMR / Cmax compared to normal hepatic function, based on GMR: total
clinical [3] = details: both, human, in vivo; for AUC(0-inf): geometric mean; for Vd/F: po
[4] = dose normalized moderate hepatic impairment vs normal
[5] = mild hepatic impairment vs normal
[6] = subjects having mild hepatic impairment

fraction unbound at 2 h (clinical [1]; 10 mg, Cohort 3 moderate hepatic impairment): 0.0339 | fraction unbound at 2 h (clinical [1]; 20 mg, Cohort 1 normal hepatic function): 0.015 | fraction unbound at 2 h (clinical [1]; 20 mg, Cohort 2 mild hepatic impairment): 0.0202 | % fb (mean (SD)) (plasma protein; Cohort 1 normal hepatic function): 98.5 (0.564) % | % fb (mean (SD)) (plasma protein; Cohort 2 mild hepatic impairment): 98.0 (1.37) % | % fb (mean (SD)) (plasma protein; Cohort 3 moderate hepatic impairment): 96.6 (1.22) % | mean AUClast compared to normal hepatic function [2, 4]: comparable | mean AUC∞ compared to normal hepatic function [2, 4]: comparable | mean Cmax compared to normal hepatic function [2, 4]: comparable | mean AUClast,unbound compared to normal hepatic function [2, 4]: 2.77 fold | mean AUC∞,unbound compared to normal hepatic function [2, 4]: 2.79 fold | mean Cmax,unbound compared to normal hepatic function [2, 4]: 2.81 fold | AUClast compared to normal hepatic function, based on GMR [2, 4]: ~1.15 fold | AUC∞ compared to normal hepatic function, based on GMR [2, 4]: ~1.16 fold | Cmax compared to normal hepatic function, based on GMR [2, 4]: ~1.07 fold | AUClast,unbound compared to normal hepatic function, based on GMR [2, 4]: ~2.65 fold | AUC∞,unbound compared to normal hepatic function, based on GMR [2, 4]: ~2.67 fold | Cmax,unbound compared to normal hepatic function, based on GMR [2, 4]: ~2.48 fold | mean AUClast compared to normal hepatic function [2, 5]: 1.37 fold | mean AUC∞ compared to normal hepatic function [2, 5]: 1.38 fold | mean Cmax compared to normal hepatic function [2, 5]: comparable | mean AUClast,unbound compared to normal hepatic function [2, 5]: 1.77 fold | mean AUC∞,unbound compared to normal hepatic function [2, 5]: 1.77 fold | mean Cmax,unbound compared to normal hepatic function [2, 5]: 1.45 fold | AUClast compared to normal hepatic function, based on GMR [2, 5]: ~1.40 fold | AUC∞ compared to normal hepatic function, based on GMR [2, 5]: ~1.40 fold | Cmax compared to normal hepatic function, based on GMR [2, 5]: ~1.07 fold | AUClast,unbound compared to normal hepatic function, based on GMR [2, 5]: ~1.68 fold | AUC∞,unbound compared to normal hepatic function, based on GMR [2, 5]: ~1.69 fold | Cmax,unbound compared to normal hepatic function, based on GMR [2, 5]: ~1.28 fold | total AUC increase compared to normal hepatic function [2, 6]: 1.40 fold | unbound AUC increase compared to normal hepatic function [2, 6]: 1.68 fold | AUC(0-inf) (clinical [3]; 10 mg, Cohort 3 (Test) moderate hepatic impairment, 10 mg dose normalized to 20 mg, unbound): 88.5 ng·h/mL | AUC(0-inf) (clinical [3]; 20 mg, Cohort 1 (Reference) normal hepatic function, total): 2380 ng·h/mL | AUC(0-inf) (clinical [3]; 20 mg, Cohort 1 (Reference) normal hepatic function, unbound): 33.2 ng·h/mL | AUC(0-inf) (clinical [3]; 20 mg, Cohort 2 (Test) mild hepatic impairment, total): 3340 ng·h/mL | AUC(0-inf) (clinical [3]; 20 mg, Cohort 2 (Test) mild hepatic impairment, unbound): 56 ng·h/mL | Vd/F (clinical [3]; 10 mg): 43.1 L | Vd/F (clinical [3]; 20 mg): 35.5 L
SMILES: Cc1cc(C)nc(N2CC3CN(C(=O)c4c(F)cccc4-n4nccn4)CC3C2)n1 (stereo not drawn) [seltorexant, [5-(4,6-dimethyl-pyrimidin-2-yl)-hexahydro-pyrrolo[3,4-c]pyrrol-2-yl]-(2-fluoro-6-[1,2,3]triazol-2-yl-phenyl)-methanone]

From patent publication US20250082635A1 (Janssen Pharmaceutica NV, priority 2023, published 2025)
